Record: PubChem BioAssay AID1259308 (NCATS, 2017)
The deposit covers about 59,000 reagents; this is an unselected part. Over the whole deposit, about 1,510 (2.6%) are marked active. 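Calls use total luciferase alone and ignore viability, so some active siRNAs may act by altering cell number.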 Reagents against one gene are numbered here.

Purpose: 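Genes whose loss raises luciferase production in HEK293 cells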 (primary screen)
Cells: human HEK293 embryonic kidney cells stably expressing firefly luciferase (HEK-CMV-Luc2-Hygro)
Reagent: single siRNA against human genes, 0.8 pmol siRNA per well
Duration: 72 h
Measured: 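Reporter luminescence and viable-cell signal on separate replicate plates, given as percent of non-targeting control and median/MAD z-scores, plus per-cell luciferase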
Scale: total luciferase, z-score and total luciferase, % of control: higher = more reporter protein produced; luciferase per cell, z-score: higher = more reporter output per viable cell; viable cells, % of control: higher = more viable cells
Rule for the call: 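An siRNA counts as active if its total luciferase robust z-score exceeds 3; genes with two or more such siRNAs out of three were retested with fresh siRNAs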
Meaning of the calls: active = raised luciferase; inactive = no rise

| Target gene | reagent | total luciferase, z-score | total luciferase, % of control | luciferase per cell, z-score | viable cells, % of control | call |
| --- | --- | --- | --- | --- | --- | --- |
| TAOK3 | 1 | 1.01 | 102 | 0.474 | 101 | inactive |
| TAOK3 | 2 | 0.948 | 101 | 0.623 | 95.5 | inactive |
| TAOK3 | 3 | -0.461 | 72.7 | -0.537 | 93.6 | inactive |
| EBLN2 | 1 | 0.184 | 85.5 | -0.12 | 98.7 | inactive |
| EBLN2 | 2 | -1.24 | 57.2 | -1.08 | 85 | inactive |
| EBLN2 | 3 | -0.895 | 64.1 | -0.0671 | 72.9 | inactive |
| CSRNP2 | 1 | 1.01 | 102 | 0.378 | 103 | inactive |
| CSRNP2 | 2 | 0.4 | 89.8 | 0.0306 | 99.6 | inactive |
| CSRNP2 | 3 | 0.708 | 96 | 0.333 | 98.3 | inactive |
| CYFIP1 | 1 | -1.77 | 46.7 | -1.19 | 71.4 | inactive |
| CYFIP1 | 2 | -1.08 | 60.5 | -1.22 | 93.1 | inactive |
| CYFIP1 | 3 | -2.07 | 40.6 | -2.15 | 79.9 | inactive |
| ELP3 | 1 | -1.31 | 55.9 | -1.68 | 97.1 | inactive |
| ELP3 | 2 | 0.314 | 88.1 | -0.316 | 107 | inactive |
| ELP3 | 3 | -0.333 | 75.3 | 0.042 | 83.2 | inactive |
| LOC441239 | 1 | -0.621 | 69.5 | -1.03 | 102 | inactive |
| LOC441239 | 2 | 0.268 | 87.2 | -0.245 | 104 | inactive |
| LOC441239 | 3 | -0.338 | 75.2 | -0.869 | 106 | inactive |
| RAPGEF2 | 1 | 0.813 | 98.1 | 0.638 | 92.6 | inactive |
| RAPGEF2 | 2 | -2.08 | 40.6 | -2.6 | 90.1 | inactive |
| RAPGEF2 | 3 | -0.303 | 75.9 | 1.8 | 52.7 | inactive |
| SPATA9 | 1 | 0.704 | 95.9 | 0.0398 | 106 | inactive |
| SPATA9 | 2 | 0.721 | 96.2 | 0.699 | 89.5 | inactive |
| SPATA9 | 3 | 0.42 | 90.2 | 1.66 | 65.1 | inactive |
| RPL28 | 1 | -0.985 | 62.3 | -1.32 | 98.5 | inactive |
| RPL28 | 2 | -1.49 | 52.3 | 0.813 | 47.1 | inactive |
| RPL28 | 3 | -2.78 | 26.5 | -2.74 | 61 | inactive |
| TTI1 | 1 | -0.549 | 71 | -0.504 | 90.6 | inactive |
| TTI1 | 2 | 0.0475 | 82.8 | -0.0254 | 93.2 | inactive |
| TTI1 | 3 | 0.33 | 88.4 | 0.794 | 80.2 | inactive |
| OSTC | 1 | 0.00888 | 82.1 | -0.456 | 103 | inactive |
| OSTC | 2 | 0.819 | 98.2 | 0.313 | 101 | inactive |
| OSTC | 3 | 0.123 | 84.3 | 0.406 | 84.7 | inactive |
| TSPAN12 | 1 | -1.67 | 48.6 | -1.46 | 79.7 | inactive |
| TSPAN12 | 2 | 0.176 | 85.4 | -0.00328 | 95.5 | inactive |
| TSPAN12 | 3 | -0.18 | 78.3 | -0.152 | 91.1 | inactive |
| ACER2 | 1 | 2.5 | 132 | 2.26 | 81.2 | inactive |
| ACER2 | 2 | -0.7 | 68 | -0.565 | 88.1 | inactive |
| ACER2 | 3 | -0.626 | 69.4 | -0.469 | 87.8 | inactive |
| FGF5 | 1 | 1.57 | 113 | 1.12 | 94.2 | inactive |
| FGF5 | 2 | -0.475 | 72.4 | 0.289 | 75 | inactive |
| FGF5 | 3 | 0.762 | 97 | 0.569 | 93.4 | inactive |
| OR1E2 | 1 | 0.169 | 85.3 | 0.384 | 86.1 | inactive |
| OR1E2 | 2 | -1.26 | 56.9 | 0.527 | 55.3 | inactive |
| OR1E2 | 3 | 0.326 | 88.4 | -0.0623 | 100 | inactive |
| SHC3 | 1 | -2.44 | 33.4 | -1.92 | 61.8 | inactive |
| SHC3 | 2 | -0.439 | 73.2 | -0.32 | 88.9 | inactive |
| SHC3 | 3 | 1.68 | 115 | 3.27 | 54.5 | inactive |
| WFDC10B | 1 | -1.08 | 60.4 | -1.47 | 99.3 | inactive |
| WFDC10B | 2 | 3.31 | 148 | 4.23 | 54.1 | active |
| WFDC10B | 3 | -0.48 | 72.3 | 0.278 | 75.1 | inactive |
| PPM1E | 1 | -1.15 | 59 | -1.09 | 87.8 | inactive |
| PPM1E | 2 | 0.633 | 94.5 | -0.0582 | 107 | inactive |
| PPM1E | 3 | -1.47 | 52.7 | -2.15 | 104 | inactive |
| SLC39A8 | 1 | -0.086 | 80.2 | -0.17 | 93.7 | inactive |
| SLC39A8 | 2 | 0.465 | 91.1 | 0.109 | 99 | inactive |
| SLC39A8 | 3 | -0.73 | 67.4 | -0.881 | 94.9 | inactive |
